PubChem BioAssay AID504784, Drosophila RNAi Screening Center, 2011

Assay: 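Genome-wide knock-down for genes giving too much or too little stored lipid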 (primary screen)
System: Drosophila Kc167 embryonic cells
Reagents: long dsRNA against Drosophila genes, about 250 ng dsRNA per well
Duration: 4 days
Challenge: cells fed 400 µM oleic acid bound to BSA
Detection: 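Cells imaged and segmented; ratio of lipid droplet area to nuclear area, log-transformed, then normalised as a B-score over the screen; higher means more stored lipid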
Scale: droplet/nuclear area B-score: higher = more stored lipid (overstorage)
The deposit covers about 17,000 reagents; shown is a random part of those that have a named target and a result. 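Each column is one replicate's B-score; the combined score over replicates was not deposited, so single values may mislead.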 Reagents against one gene are numbered here. Not all columns of the deposit are shown.

gene knocked down | reagent | droplet/nuclear area B-score, replicate 1
CG1537 (GeneID 32037) | 1 | -1.04
AstA (GeneID 42947) | 1 | 0.111
alphaTub84D (GeneID 40904) | 1 | 0.77
Prp8 (GeneID 36304) | 1 | 5.94
CG10104 (GeneID 36602) | 1 | -0.691
CG12662 (GeneID 31825) | 1 | -0.953
Ugt302K1 (GeneID 53502) | 1 | -1.12
CG16888 (GeneID 34789) | 1 | 0.516
Hsp67Ba (GeneID 39076) | 1 | -1.19
Nup133 (GeneID 42680) | 1 | 0.749
Bulli (GeneID 38734) | 1 | -0.0472
dnc (GeneID 31309) | 1 | 0.0819
dnc (GeneID 31309) | 2 | 3.55
dnc (GeneID 31309) | 3 | 2.06
dnc (GeneID 31309) | 4 | 0.38
dnc (GeneID 31309) | 5 | 0.00162
CG1603 (GeneID 35683) | 1 | -1.35
Drep4 (GeneID 34734) | 1 | 0.422
CycE (GeneID 34924) | 1 | -1.47
CycE (GeneID 34924) | 2 | -1.81
TfIIA-S (GeneID 42822) | 1 | 1.08
Jon65Aii (GeneID 38684) | 1 | 0.462
Edem2 (GeneID 34714) | 1 | 1.34
CG11368 (GeneID 50397) | 1 | -1.22
FLASH (GeneID 36455) | 1 | 0.00466
CG42323 (GeneID 32825) | 1 | 0.529
CG42323 (GeneID 32825) | 2 | 0.723
CG10300 (GeneID 42798) | 1 | -0.193
CG7368 (GeneID 39301) | 1 | -0.963
CG7368 (GeneID 39301) | 2 | -0.542
tex (GeneID 40983) | 1 | -0.852
Nost (GeneID 8673992) | 1 | -1.73
Nost (GeneID 8673992) | 2 | -0.448
Snx17 (GeneID 34354) | 1 | 0.129
GV1 (GeneID 38238) | 1 | -0.466
CG13847 (GeneID 42636) | 1 | 0.413
CG13847 (GeneID 42636) | 2 | 0.006
CG32249 (GeneID 317939) | 1 | -0.982
CG32249 (GeneID 317939) | 2 | 0.935
CG32249 (GeneID 317939) | 3 | 0.394
Ripalpha (GeneID 34351) | 1 | 0.488
wb (GeneID 43946) | 1 | -6.64
wb (GeneID 43946) | 2 | -0.368
wb (GeneID 43946) | 3 | -1.61
eIF1A (GeneID 44260) | 1 | 2.76
CG15824 (GeneID 33272) | 1 | -0.0567
Ccp84Ab (GeneID 40824) | 1 | -1.24
alpha-Est6 (GeneID 40902) | 1 | -1.44
oc (GeneID 31802) | 1 | -1.72
CG11349 (GeneID 38552) | 1 | 0.464
Prp6 (GeneID 40064) | 1 | 0.0536
Prp6 (GeneID 40064) | 2 | 0.384
eco (GeneID 38812) | 1 | 0.738
prc (GeneID 43930) | 1 | 0.07
Mpp6 (GeneID 35382) | 1 | -1.3
beat-Ia (GeneID 34947) | 1 | 0.349
CG6168 (GeneID 39273) | 1 | 0.0107
CG30371 (GeneID 35806) | 1 | 0.0449
CG10939 (GeneID 44155) | 1 | -0.234
CG10939 (GeneID 44155) | 2 | -1.23
CG31437 (GeneID 318735) | 1 | 1.44
GluRIIC (GeneID 33275) | 1 | 0.293
CG30411 (GeneID 246600) | 1 | 2.23
CG5568 (GeneID 38658) | 1 | 0.12
CG5568 (GeneID 38658) | 2 | 0.672
CG12702 (GeneID 32993) | 1 | -0.322
CG32437 (GeneID 40366) | 1 | 0.245
CG32437 (GeneID 40366) | 2 | -0.281
CG18011 (GeneID 36068) | 1 | -0.971
CG18011 (GeneID 36068) | 2 | -2.69
Ote (GeneID 37090) | 1 | 0.0522
SF1 (GeneID 43912) | 1 | 1.12
fau (GeneID 41291) | 1 | 2.24
fau (GeneID 41291) | 2 | 0.165
fau (GeneID 41291) | 3 | -0.112
fau (GeneID 41291) | 4 | 0.117
fau (GeneID 41291) | 5 | 0.0372
fau (GeneID 41291) | 6 | -0.807
CG7912 (GeneID 43561) | 1 | -0.478
Rbsn-5 (GeneID 34110) | 1 | 1.8
CIA30 (GeneID 43503) | 1 | -2.17
Epac (GeneID 35588) | 1 | 1.25
Epac (GeneID 35588) | 2 | 1.13
Epac (GeneID 35588) | 3 | 1.52

Sorted by “droplet/nuclear area B-score, replicate 1” (descending): 11 of the entries above.
gene knocked down | reagent | droplet/nuclear area B-score, replicate 1
CG30411 (GeneID 246600) | 1 | 2.23
CG31437 (GeneID 318735) | 1 | 1.44
CG5568 (GeneID 38658) | 2 | 0.672
GluRIIC (GeneID 33275) | 1 | 0.293
CG32437 (GeneID 40366) | 1 | 0.245
CG5568 (GeneID 38658) | 1 | 0.12
CG10939 (GeneID 44155) | 1 | -0.234
CG32437 (GeneID 40366) | 2 | -0.281
CG12702 (GeneID 32993) | 1 | -0.322
CG18011 (GeneID 36068) | 1 | -0.971
CG10939 (GeneID 44155) | 2 | -1.23
